Measured values: patent publication US20080104718A1, “Transgenic Non-Human Animal Models of Ischemia-Reperfusion Injury and Uses Thereof” (UNIVERSITY OF ROCHESTER, priority 2004, published 2008)
For at least one compound, name, drawing or mass did not settle the structure.

System: isolated heart from WT-p90RSK-Tg mice and non-transgenic littermate control (NLC) mice
Assay: Left ventricular function after global ischemia/reperfusion, Langendorff isolated heart
Set-up: species or system mouse
Conditions: olmesartan 10 μM pretreatment; WT-p90RSK-Tg hearts (20 min ischemia) and NLC hearts (40 min ischemia), 25 min reperfusion

CCCc1nc(C(C)(C)O)c(C(=O)O)n1Cc1ccc(-c2ccccc2-c2nnn[nH]2)cc1 [olmesartan]
protection from I/R-induced contractile dysfunction: protected WT-p90RSK-Tg but not NCL hearts
